Results published in patent publication US11072633B2 (priority 2016, dated 2021).
≈ marks a conversion by molar mass, not a printed value. At least one structure is not confirmed: it was looked up by name or label, or the drawing left a doubt.

Key:
Format in all cases: cell-based, M. tuberculosis
[1] = test system: RIF-R1 (derived from H37Rv, rpoB mutant S522L)
[2] = test system: FQ-R1 (fluoroquinolone-resistant strain derived from H37Rv, gyrA mutant D94N)
[3] = test system: INH-R1 (derived from H37Rv, katG mutant Y155*)

Row | Compound | MIC RIF-R1 [1] | MIC FQ-R1 [2] | MIC INH-R1 [3]
1 | C[C@H]1COc2c(N3CCN(C)CC3)c(F)cc3c(=O)c(C(=O)O)cn1c23 [Levofloxacin] | 1.7 µM (≈ 0.614 µg/mL) | 17 µM (≈ 6.14 µg/mL) | 1.4 µM (≈ 0.506 µg/mL)
2 | CO[C@H]1/C=C/O[C@@]2(C)Oc3c(C)c(O)c4c(O)c(c(/C=N/N5CCN(C)CC5)c(O)c4c3C2=O)NC(=O)/C(C)=C\C=C\[C@H](C)[C@H](O)[C@@H](C)[C@@H](O)[C@@H](C)[C@H](OC(C)=O)[C@@H]1C [Rifampicin] | 6.2 µM (≈ 5.1 µg/mL) | 0.022 µM (≈ 0.0181 µg/mL) | 0.019 µM (≈ 0.0156 µg/mL)
